From publication PMC9638026
For part of these data: A negative result means that nothing was seen under these conditions. For part of these data: At least one verdict was read from the data and is not stated in words by the source. The exact form of at least one protein or probe is not confirmed. For part of these data: Whether high values mean tight binding is not given here for every scale.

By UniProt entry, the sequences of proteins in these tests, tags left out. Residues count along the entry.
UniProt Q9BRJ7, 6-211: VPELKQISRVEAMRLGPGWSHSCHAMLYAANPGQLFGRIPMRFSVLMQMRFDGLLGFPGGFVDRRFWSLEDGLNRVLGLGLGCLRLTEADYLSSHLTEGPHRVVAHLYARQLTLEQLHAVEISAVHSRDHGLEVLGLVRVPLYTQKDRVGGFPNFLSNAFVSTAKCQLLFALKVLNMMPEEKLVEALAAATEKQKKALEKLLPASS
UniProt Q12888, 1484-1603: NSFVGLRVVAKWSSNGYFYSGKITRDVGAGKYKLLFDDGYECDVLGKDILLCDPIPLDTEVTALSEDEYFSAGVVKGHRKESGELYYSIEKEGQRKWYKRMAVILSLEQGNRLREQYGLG

Key:
TIRR (6-211)-His = TIRR (6-211)-His (UniProt Q9BRJ7); assay: SPR; details: SPR: 20 mM HEPES pH 6, 300 mM NaCl, 0.05% P20, 25 C, recombinant protein, residues 6-211, protein details: His; for binding result: up to 200 uM, no comparable binding
[1] = target: 53BP1-Tudor (Homo sapiens) (UniProt Q12888); assay: EMSA; details: 20 mM Mg2+, EMSA: 50 mM HEPES, 50 mM NaCl, 5% glycerol, 20 mM MgCl2, 0.01% Tween 20, 37 C 15 min, 10 nM probe, commercial protein, label: 32P 5' in EMSA
TIRR full length = TIRR full length (UniProt Q9BRJ7); assay: EMSA; details: 20 mM Mg2+, EMSA: 50 mM HEPES, 50 mM NaCl, 5% glycerol, 20 mM MgCl2, 0.01% Tween 20, 37 C 15 min, 10 nM probe, recombinant protein, residues 1-211, label: 32P 5' in EMSA
TIRR (HTRF) = TIRR (HTRF) (Homo sapiens?) (UniProt Q9BRJ7); assay: competition (HTRF); details: TIRR/53BP1 complex, highest RNA concentration; EMSA: 50 mM HEPES, 50 mM NaCl, 5% glycerol, 20 mM MgCl2, 0.01% Tween 20, 37 C 15 min, 10 nM probe; recombinant protein; label: 32P 5' in EMSA

GGACAAGATGCCTTATGTGG (double strand) [dsDNA]
binding result (TIRR (6-211)-His; letters put together from the description): no binding

GGACAAGATGCCTTATGTGG [ssDNA (DNA sense)]
binding result (TIRR (6-211)-His; label: 32P 5' in EMSA, single-stranded DNA): no binding | binding result ([1]; single-stranded DNA): no binding | binding result (TIRR full length; single-stranded DNA): no binding

GGACAAGATGCCTTATGTGGACTTCACCACATAAGGCATCTTGTCC [DNA hairpin]
binding result (TIRR (6-211)-His; folded or branched DNA): no binding

GGACAAGAUGCCUUAUGUGG [ssRNA (RNA sense; ssRNA1)]
binding signal (% dissociation of TIRR/53BP1) (TIRR (HTRF)): 18 | Kd (TIRR (6-211)-His; label: 32P 5' in EMSA): 100 µM | binding result [1]: no binding | binding result (TIRR full length): binds
